Measurements as given in the supplement of paper PMC12067093, “Discovery and optimisation of a covalent ligand for TRIM25 and its application to targeted protein ubiquitination” (Chemical Science, 2025).
This is one part of the list.

Chains of the proteins cited; added tags and fusions are not shown. Lines headed by an entry give the natural chain unless they say otherwise; changes in a name come on top.
UniProt Q13574: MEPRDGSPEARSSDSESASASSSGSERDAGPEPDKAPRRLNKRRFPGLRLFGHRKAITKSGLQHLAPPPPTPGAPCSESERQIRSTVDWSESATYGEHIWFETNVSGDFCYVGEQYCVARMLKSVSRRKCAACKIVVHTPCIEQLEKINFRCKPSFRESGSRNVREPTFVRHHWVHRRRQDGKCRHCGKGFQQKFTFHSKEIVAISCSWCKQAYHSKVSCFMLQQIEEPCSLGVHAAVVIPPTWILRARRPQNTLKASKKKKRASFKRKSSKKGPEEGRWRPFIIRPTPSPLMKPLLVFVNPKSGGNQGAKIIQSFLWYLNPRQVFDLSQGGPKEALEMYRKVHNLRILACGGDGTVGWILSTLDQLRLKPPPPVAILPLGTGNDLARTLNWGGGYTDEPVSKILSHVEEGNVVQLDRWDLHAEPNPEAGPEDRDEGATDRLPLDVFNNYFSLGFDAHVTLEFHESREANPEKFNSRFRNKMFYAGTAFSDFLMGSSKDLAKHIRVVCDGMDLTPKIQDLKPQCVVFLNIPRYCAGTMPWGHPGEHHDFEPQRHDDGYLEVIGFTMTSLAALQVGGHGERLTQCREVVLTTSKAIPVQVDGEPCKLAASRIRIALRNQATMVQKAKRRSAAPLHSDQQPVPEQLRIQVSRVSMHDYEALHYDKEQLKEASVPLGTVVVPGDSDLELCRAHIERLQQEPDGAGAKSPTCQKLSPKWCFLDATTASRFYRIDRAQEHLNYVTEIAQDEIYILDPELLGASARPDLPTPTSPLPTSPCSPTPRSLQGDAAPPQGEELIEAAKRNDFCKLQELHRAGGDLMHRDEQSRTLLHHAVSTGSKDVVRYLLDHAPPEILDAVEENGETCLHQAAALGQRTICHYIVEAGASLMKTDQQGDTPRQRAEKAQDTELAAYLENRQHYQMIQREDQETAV
UniProt O75064: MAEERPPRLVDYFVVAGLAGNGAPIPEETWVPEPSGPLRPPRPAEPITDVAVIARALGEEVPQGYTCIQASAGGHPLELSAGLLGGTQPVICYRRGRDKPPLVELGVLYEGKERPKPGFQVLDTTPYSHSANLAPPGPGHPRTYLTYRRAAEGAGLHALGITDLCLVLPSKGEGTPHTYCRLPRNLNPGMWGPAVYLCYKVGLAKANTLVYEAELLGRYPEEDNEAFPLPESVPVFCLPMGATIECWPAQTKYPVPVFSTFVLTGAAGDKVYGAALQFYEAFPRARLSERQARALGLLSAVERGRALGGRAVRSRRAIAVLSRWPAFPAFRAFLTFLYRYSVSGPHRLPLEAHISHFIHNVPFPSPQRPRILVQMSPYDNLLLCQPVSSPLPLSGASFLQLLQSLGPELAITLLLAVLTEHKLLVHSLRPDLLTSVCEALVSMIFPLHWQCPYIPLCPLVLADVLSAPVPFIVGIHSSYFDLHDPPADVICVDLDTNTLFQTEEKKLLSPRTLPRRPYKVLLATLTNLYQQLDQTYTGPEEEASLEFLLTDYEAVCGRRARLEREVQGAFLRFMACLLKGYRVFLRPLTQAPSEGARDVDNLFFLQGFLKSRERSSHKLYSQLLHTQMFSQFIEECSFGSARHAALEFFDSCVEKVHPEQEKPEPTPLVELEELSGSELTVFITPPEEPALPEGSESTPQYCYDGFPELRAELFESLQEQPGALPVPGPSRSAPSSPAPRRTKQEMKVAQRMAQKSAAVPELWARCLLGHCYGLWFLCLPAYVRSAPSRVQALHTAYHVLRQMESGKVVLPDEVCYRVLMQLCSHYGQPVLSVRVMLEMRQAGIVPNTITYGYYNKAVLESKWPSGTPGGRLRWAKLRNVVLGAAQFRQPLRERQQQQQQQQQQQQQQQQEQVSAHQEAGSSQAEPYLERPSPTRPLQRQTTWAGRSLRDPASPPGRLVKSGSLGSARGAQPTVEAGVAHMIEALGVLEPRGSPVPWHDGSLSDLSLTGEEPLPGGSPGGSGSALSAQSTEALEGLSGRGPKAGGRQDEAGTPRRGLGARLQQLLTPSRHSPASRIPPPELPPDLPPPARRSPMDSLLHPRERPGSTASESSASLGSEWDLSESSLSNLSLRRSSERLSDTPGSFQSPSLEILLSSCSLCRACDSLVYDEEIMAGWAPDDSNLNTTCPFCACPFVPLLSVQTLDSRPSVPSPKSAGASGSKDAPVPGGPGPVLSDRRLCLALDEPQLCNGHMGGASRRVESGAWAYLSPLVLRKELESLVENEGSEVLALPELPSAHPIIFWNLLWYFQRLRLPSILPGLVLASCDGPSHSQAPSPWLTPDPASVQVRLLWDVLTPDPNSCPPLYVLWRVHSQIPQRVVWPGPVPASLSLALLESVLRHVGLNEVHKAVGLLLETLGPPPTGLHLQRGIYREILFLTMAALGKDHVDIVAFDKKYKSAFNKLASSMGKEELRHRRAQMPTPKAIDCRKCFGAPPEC
UniProt Q92499: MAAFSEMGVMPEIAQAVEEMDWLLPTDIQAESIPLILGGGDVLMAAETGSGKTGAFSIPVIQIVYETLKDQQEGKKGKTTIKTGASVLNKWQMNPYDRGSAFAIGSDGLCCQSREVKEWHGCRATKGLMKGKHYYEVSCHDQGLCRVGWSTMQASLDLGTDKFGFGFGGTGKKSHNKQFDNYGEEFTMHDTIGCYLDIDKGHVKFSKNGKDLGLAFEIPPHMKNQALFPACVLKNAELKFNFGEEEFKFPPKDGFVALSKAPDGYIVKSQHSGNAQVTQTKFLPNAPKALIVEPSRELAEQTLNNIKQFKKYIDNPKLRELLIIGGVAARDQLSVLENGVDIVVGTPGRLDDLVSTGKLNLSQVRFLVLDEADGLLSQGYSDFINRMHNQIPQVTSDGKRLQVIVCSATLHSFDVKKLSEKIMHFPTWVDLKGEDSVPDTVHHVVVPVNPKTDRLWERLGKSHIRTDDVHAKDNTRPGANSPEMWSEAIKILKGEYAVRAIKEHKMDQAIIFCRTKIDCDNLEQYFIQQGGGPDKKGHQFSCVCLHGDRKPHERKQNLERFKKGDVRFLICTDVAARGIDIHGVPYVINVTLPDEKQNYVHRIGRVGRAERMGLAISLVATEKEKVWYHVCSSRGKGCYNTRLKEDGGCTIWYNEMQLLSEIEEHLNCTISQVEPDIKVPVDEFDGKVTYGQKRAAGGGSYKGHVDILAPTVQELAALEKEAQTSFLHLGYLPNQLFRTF
UniProt O43583: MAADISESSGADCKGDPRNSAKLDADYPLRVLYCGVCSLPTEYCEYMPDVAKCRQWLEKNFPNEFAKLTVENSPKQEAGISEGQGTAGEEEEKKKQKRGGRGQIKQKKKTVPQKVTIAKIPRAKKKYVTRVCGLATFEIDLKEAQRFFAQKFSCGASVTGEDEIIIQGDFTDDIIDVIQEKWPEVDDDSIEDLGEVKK
UniProt A2RUS2: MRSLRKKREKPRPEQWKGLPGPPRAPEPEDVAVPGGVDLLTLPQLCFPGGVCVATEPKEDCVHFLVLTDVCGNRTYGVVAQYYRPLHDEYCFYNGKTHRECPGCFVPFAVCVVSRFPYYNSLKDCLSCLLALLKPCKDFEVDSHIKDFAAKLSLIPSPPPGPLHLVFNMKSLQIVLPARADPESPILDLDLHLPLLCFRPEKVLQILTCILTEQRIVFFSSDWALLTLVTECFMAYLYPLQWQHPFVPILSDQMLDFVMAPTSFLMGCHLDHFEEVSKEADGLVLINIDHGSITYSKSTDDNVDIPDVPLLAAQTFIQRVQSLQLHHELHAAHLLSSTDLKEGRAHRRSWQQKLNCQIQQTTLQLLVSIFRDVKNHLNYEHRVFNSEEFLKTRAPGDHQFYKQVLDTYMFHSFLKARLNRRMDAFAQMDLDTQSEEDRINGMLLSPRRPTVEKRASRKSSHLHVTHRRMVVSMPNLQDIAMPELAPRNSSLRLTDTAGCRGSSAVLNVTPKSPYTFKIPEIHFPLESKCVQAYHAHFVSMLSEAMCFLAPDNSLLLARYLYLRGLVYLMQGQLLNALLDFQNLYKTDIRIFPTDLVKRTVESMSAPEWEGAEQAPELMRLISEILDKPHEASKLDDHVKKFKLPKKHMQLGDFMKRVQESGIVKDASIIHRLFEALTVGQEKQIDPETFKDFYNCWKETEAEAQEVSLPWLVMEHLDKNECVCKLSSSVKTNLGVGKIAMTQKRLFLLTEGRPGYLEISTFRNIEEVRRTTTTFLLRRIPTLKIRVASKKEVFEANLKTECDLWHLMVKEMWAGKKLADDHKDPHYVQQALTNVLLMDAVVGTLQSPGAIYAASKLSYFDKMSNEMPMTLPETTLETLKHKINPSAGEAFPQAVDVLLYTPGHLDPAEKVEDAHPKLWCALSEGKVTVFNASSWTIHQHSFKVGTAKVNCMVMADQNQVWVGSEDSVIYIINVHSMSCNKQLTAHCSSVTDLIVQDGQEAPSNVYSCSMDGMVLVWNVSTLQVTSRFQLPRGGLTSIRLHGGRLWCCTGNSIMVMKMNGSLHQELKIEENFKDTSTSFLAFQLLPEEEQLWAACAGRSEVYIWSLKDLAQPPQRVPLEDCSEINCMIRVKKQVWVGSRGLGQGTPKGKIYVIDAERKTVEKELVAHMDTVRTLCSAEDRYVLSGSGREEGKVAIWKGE
UniProt Q9GZR7: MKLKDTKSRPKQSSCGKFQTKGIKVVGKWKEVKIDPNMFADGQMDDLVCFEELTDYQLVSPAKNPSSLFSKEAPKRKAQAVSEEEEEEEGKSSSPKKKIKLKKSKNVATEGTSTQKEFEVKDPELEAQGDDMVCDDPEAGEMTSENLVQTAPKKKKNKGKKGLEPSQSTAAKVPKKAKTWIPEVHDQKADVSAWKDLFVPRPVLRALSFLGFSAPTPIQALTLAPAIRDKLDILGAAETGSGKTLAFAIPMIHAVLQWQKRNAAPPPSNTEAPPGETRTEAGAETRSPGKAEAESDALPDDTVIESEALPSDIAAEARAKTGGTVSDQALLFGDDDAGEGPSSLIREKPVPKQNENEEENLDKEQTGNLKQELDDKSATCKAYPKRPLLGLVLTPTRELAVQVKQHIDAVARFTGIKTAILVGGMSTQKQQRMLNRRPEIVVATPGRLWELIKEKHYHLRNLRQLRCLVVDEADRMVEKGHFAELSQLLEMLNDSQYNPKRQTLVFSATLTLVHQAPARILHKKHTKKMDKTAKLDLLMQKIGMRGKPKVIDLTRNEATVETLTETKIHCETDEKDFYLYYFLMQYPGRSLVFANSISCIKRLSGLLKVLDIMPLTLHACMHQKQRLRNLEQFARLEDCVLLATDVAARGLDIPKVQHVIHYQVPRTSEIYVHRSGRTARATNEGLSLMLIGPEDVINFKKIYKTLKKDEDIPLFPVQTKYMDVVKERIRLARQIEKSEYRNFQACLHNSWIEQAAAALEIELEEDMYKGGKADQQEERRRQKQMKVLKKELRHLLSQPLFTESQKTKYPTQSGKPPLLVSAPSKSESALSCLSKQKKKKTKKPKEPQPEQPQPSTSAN
UniProt Q7L014: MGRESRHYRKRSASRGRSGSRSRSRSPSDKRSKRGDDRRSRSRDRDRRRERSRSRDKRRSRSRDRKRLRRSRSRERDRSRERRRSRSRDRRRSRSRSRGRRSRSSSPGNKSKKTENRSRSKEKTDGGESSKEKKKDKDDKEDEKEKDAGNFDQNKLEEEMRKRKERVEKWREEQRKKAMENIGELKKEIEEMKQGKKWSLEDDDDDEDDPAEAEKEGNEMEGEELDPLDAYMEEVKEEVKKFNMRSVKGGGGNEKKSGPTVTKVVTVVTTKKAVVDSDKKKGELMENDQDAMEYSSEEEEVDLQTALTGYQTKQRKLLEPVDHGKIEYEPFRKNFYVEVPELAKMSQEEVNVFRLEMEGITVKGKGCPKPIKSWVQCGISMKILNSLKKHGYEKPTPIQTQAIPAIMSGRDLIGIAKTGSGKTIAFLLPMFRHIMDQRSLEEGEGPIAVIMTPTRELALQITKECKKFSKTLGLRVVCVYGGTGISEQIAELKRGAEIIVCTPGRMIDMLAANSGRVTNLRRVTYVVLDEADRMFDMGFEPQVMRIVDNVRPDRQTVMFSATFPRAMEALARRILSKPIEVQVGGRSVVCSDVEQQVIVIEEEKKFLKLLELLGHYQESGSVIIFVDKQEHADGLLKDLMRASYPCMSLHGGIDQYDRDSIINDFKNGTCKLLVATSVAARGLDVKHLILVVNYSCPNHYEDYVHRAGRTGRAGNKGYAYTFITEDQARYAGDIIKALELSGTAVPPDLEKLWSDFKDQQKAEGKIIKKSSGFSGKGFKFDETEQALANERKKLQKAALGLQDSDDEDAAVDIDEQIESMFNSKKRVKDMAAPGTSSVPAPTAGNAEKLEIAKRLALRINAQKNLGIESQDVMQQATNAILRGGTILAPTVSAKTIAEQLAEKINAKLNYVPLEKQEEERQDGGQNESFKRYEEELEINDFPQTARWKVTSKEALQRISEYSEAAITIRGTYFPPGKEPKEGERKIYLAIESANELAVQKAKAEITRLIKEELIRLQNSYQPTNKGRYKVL

Compound: Cc1cc(ccc1-c1ccccc1)C(=O)N1CCCN(CC1)C(=O)CCl [compound 10]
Assay: probe-labelled cysteine peptide fold change vs DMSO (competition) (log2 fold change); higher = less target engagement (more negative = stronger competition)
Conditions: THP-1, incubation time: 4 h
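Note: competitive profiling in live THP-1 cells: cysteine peptides tagged with an iodoacetamide desthiobiotin (IA-DTB) probe, intensity after compound treatment relative to DMSO-treated cells.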

Row | Target | probe-labelled cysteine peptide fold change (10 µM) | probe-labelled cysteine peptide fold change (50 µM)
1 | DDX17_Q92841_319_CTYLVLDEADRMLDMGFEPQIR (UniProt Q92841) | 0.023 | -0.374
2 | DDX17_Q92841_447_RDGWPAMCIHGDK (UniProt Q92841) | -0.037 | -0.109
3 | DESI1_Q6ICB0_108_GEAYNLFEHNCNTFSNEVAQFLTGR (UniProt Q6ICB0) | -0.076 | -1.61
4 | DGKZ_Q13574_1063_TICHYIVEAGASLMK (UniProt Q13574) | 0.112 | -0.107
5 | DGKD_Q16760_596_LVASACPARPQIFRPR (UniProt Q16760) | -0.17 | 0.0044
6 | DGKQ_P52824_171_QCHQDGHQDHDTHHHHWR (UniProt P52824) | 0.222 | 0.176
7 | DENND4B_O75064_652_HAALEFFDSCVEK (UniProt O75064) | 0.0262 | 0.235
8 | DDX1_Q92499_542_GHQFSCVCLHGDR (UniProt Q92499) | 0.0323 | -0.0884
9 | DGKG_P49619_490_VLACGGDGTVGWILDCIDK (UniProt P49619) | 0.00549 | -0.121
10 | DENR_O43583_44_VLYCGVCSLPTEYCEYMPDVAK (UniProt O43583) | -0.12 | -0.0859
11 | DENND3_A2RUS2_61+71_EDCVHFLVLTDVCGNR (UniProt A2RUS2) | -0.0566 | 0.0022
12 | DDOST_P39656_145_ELGSECGIEFDEEK (UniProt P39656) | -0.057 | 0.292
13 | DEF6_Q9H4E7_94_EHFDELCWTLTAK (UniProt Q9H4E7) | 0.0581 | -0.0179
14 | DDX56_Q9NY93_518_KLSSSCR (UniProt Q9NY93) | -0.355 | -0.808
15 | DDB1_Q16531_725_KICYQEVSQCFGVLSSR (UniProt Q16531) | -0.0379 | -0.426
16 | DENND3_A2RUS2_499_LTDTAGCR (UniProt A2RUS2) | -0.198 | -0.918
17 | DDX17_Q92841_584_TTSSANNPNLMYQDECDRR (UniProt Q92841) | 0.428 | -0.0273
18 | DDB2_Q92466_322_VYSASQWDCPLGLIPHPHR (UniProt Q92466) | 0.00758 | -0.144
19 | DDX24_Q9GZR7_620_VLDIMPLTLHACMHQK (UniProt Q9GZR7) | -0.021 | 0.133
20 | DDX52_Q9Y2R4_59_SVPGVCGASQTHQKPQNGEK (UniProt Q9Y2R4) | -0.155 | -0.407
21 | DDX39A_O00148_197_HFVLDECDK (UniProt O00148) | 0.0709 | 0.0839

Row | Target | probe-labelled cysteine peptide fold change (10 µM) | probe-labelled cysteine peptide fold change (50 µM)
22 | DDX1_Q92499_145_HYYEVSCHDQGLCR (UniProt Q92499) | 0.0291 | 0.0413
23 | DENND4B_O75064_636_LYSQLLHTQMFSQFIEECSFGSAR (UniProt O75064) | 0.158 | 0.0652
24 | DGKH_Q86XP1_995_THLYIHHAIDLATEEVSQMQLCSQAAEELITR (UniProt Q86XP1) | -0.0192 | 0.0692
25 | DDX39B_Q13838_198_HFILDECDK (UniProt Q13838) | 0.101 | 0.209
26 | DHRS7_Q9Y394_147_SLCMDTSLDVYRK (UniProt Q9Y394) | -0.112 | -0.102
27 | DDX5_P17844_320_DYIHINIGALELSANHNILQIVDVCHDVEKDEK (UniProt P17844) | -0.18 | -0.432
28 | DDX5_P17844_354_RCDELTR (UniProt P17844) | 0.117 | 0.392
29 | DEPDC1B_Q8WUY9_43_SYEHCFTAAEAVDWLHELLR (UniProt Q8WUY9) | 0.101 | 0.0359
30 | DENR_O43583_132_VCGLATFEIDLK (UniProt O43583) | 0.187 | 0.277
31 | DECR2_Q9NUI1_13_AQPPPDVEGDDCLPAYR (UniProt Q9NUI1) | 0.286 | 0.364
32 | DDX17_Q92841_166+199_GGDVCPKPVFAFHHANFPQYVMDVLMDQHFTEPTPIQCQGFPLALSGR (UniProt Q92841) | -0.28 | -1.05
33 | DEPDC5_O75140_966_ITEGEAHCDIYGDRPR (UniProt O75140) | -0.355 | 0.108
34 | DGKZ_Q13574_713_IQDLKPQCVVFLNIPR (UniProt Q13574) | -0.0234 | -0.109
35 | DDX24_Q9GZR7_570_IHCETDEK (UniProt Q9GZR7) | -0.15 | 0.261
36 | DDX46_Q7L014_646_ASYPCMSLHGGIDQYDRDSIINDFK (UniProt Q7L014) | -0.0189 | -0.185
37 | DDX20_Q9UHI6_162_MEGLECHVFIGGTPLSQDK (UniProt Q9UHI6) | 0.208 | 0.306
38 | DDX60L_Q5H9U9_1449_GLFHNLCK (UniProt Q5H9U9) | -0.2 | 0.212
39 | DENND4C_Q5VZ89_88_SPELFLCYK (UniProt Q5VZ89) | 0.355 | -0.178
40 | DDX1_Q92499_231_NQALFPACVLK (UniProt Q92499) | -0.209 | 0.0128
41 | DDX54_Q8TDD1_389_CSTLIVTDLAAR (UniProt Q8TDD1) | 0.1 | 0.184
42 | DENND4A_Q7Z401_648_DASLAFFDDCVDKVDMDK (UniProt Q7Z401) | -0.206 | -0.185
